{"source": "patent US9999649B2", "about": "“Peptide having ability to synthesize collagen and use thereof” (NOVACELL TECHNOLOGY INC., priority 2013, dated 2018)", "system": "type I collagen", "experiment": "Type I collagen synthesis by Pal-YIGSR peptide, immunoblotting in Hs27 skin fibroblasts", "type": "cell-based, human", "details": "FIG. 7", "procedure": "Hs27 skin fibroblasts, which are under culture, were treated with the peptide derivatives prepared in Examples 1 and 2, and Comparative Example 2, and an amount of expressed type I collagen in the cells were measured by an immunoblotting method. The Hs27 skin fibroblasts were cultured by using DMEM medium, (Lonza, USA), to which 10% FBS was added (Lonza, USA), under the condition of 95% of humidity, 5% CO2, and 37° C. Hs27 skin fibroblasts were treated with each concentration of the peptide (0, 2, 25, 50 and 100 μM) for 24 hours or 100 μM of the peptide for each period of time (0, 0.5, 6, 12 and 24 hours). Then, the treated cells were sonicated in the lysis buffer (150 mM NaCl, 1% Triton X-100, 10 mM Tris, 1 mM EDTA, pH 7.4). Thereafter, supernatant was isolated through centrifugation, and quantification was performed through Bradford assay. The same amount of a protein was mixed in a 5× sample buffer and the mixture was heated for 5 minutes at 95° C. The resultant was electrophoresed on 6-15% concentration gradient SDS-Polyacrylamide gel electrophoresis (SDS-PAGE) and then adsorbed to a nitrocellulose membrane. […]", "note": "Part of at least one peptide drawing is inferred or uncertain, most often the ends. No end group written: not given here."}
{"substance": "YIGSR [YIGSR peptide, YIGSR]", "values": [{"measurement": "degree of collagen synthesis compared with control and Pal-YIGSR", "value": "increased collagen synthesis, although the degree of synthesis is lower than that of Pal-YIGSR"}]}
